Patent US20040067932A1 (priority 2002, published 2004)
Some entries share one result that the patent states for a list of compounds. Some ranges recur; such a range may be that of the whole group of compounds.

Tested on: human melanoma A375 cell line
Assay: MTT growth inhibitory assay, A375
Type: cell-based
Conditions: A3 antagonist 5 μg/ml, paclitaxel 0.0002-0.1 μg/ml

Structure (SMILES): CN(C)c1ccc(NC(=O)Nc2nc3nn(C)cc3c3nc(-c4ccco4)nn23)cc1 [IL-11, N-1-(4-dimethylamino-phenyl)-N′-5-[8-methyl-2-(2-furyl)-pyrazolo[4,3-e]1,2,4-triazolo[1,5-c]pyrimidine]-urea]
- Enhancement Factor for paclitaxel: 8-12

Structure (SMILES): CCN(CC)c1ccc(NC(=O)Nc2nc3nn(C)cc3c3nc(-c4ccco4)nn23)cc1 [IL-10, N-1-(4-diethylamino-phenyl)-N′-5-[8-methyl-2-(2-furyl)-pyrazolo[4 ,3-e]1,2,4-triazolo[1,5-c]pyrimidine]-urea]
- Enhancement Factor for paclitaxel: 8-12
